According to the supplement of paper PMC10849652:
Some of the results follow.

Protein sequences, listed by entry. Tags and fused reporters are not part of them. Lines headed by an entry give the natural chain unless they say otherwise; changes in a name come on top.
UniProt P51553: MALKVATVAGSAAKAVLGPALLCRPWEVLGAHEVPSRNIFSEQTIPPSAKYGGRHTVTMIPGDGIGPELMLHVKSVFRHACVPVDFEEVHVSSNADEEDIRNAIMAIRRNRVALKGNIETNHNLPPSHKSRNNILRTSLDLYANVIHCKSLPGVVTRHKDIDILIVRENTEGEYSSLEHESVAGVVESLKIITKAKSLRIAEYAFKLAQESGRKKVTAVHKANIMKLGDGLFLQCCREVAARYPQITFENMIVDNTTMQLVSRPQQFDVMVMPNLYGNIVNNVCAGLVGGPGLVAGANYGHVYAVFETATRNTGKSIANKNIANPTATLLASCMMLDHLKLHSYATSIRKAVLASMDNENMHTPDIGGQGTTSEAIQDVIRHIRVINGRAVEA
UniProt Q9NPH2: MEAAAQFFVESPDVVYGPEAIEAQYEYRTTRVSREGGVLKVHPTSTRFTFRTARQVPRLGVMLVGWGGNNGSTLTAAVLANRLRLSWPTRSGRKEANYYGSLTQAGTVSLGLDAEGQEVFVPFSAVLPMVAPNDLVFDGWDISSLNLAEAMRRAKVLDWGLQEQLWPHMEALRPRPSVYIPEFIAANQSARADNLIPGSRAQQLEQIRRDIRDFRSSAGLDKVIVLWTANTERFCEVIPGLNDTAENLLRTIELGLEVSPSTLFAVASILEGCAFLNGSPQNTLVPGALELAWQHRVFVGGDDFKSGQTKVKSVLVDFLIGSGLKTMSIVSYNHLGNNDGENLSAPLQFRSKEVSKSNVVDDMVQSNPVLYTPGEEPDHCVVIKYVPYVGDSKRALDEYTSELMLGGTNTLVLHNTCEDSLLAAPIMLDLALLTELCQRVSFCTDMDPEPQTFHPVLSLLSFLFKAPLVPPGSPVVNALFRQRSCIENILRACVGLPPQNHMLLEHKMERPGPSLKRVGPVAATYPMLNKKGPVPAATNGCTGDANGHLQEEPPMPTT
UniProt Q9BUE6: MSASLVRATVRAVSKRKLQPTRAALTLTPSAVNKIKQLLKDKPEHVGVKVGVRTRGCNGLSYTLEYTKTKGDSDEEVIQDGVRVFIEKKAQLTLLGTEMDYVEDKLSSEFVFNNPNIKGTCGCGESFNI
UniProt Q96SY0, whole entry, looked up: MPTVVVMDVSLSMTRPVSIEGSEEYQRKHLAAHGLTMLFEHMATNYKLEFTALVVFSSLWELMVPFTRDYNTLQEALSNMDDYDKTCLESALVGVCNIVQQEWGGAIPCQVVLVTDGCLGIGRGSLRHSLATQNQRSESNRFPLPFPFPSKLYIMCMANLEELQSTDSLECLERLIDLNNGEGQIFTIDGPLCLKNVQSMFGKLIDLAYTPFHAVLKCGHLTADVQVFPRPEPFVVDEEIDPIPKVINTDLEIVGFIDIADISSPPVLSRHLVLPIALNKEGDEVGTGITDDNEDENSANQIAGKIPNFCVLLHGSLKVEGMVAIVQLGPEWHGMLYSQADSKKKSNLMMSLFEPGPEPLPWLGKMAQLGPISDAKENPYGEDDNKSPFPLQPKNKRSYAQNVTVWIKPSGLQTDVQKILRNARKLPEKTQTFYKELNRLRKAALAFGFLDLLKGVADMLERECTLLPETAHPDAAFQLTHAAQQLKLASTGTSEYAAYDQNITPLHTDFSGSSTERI
UniProt Q96HW7, whole entry, looked up: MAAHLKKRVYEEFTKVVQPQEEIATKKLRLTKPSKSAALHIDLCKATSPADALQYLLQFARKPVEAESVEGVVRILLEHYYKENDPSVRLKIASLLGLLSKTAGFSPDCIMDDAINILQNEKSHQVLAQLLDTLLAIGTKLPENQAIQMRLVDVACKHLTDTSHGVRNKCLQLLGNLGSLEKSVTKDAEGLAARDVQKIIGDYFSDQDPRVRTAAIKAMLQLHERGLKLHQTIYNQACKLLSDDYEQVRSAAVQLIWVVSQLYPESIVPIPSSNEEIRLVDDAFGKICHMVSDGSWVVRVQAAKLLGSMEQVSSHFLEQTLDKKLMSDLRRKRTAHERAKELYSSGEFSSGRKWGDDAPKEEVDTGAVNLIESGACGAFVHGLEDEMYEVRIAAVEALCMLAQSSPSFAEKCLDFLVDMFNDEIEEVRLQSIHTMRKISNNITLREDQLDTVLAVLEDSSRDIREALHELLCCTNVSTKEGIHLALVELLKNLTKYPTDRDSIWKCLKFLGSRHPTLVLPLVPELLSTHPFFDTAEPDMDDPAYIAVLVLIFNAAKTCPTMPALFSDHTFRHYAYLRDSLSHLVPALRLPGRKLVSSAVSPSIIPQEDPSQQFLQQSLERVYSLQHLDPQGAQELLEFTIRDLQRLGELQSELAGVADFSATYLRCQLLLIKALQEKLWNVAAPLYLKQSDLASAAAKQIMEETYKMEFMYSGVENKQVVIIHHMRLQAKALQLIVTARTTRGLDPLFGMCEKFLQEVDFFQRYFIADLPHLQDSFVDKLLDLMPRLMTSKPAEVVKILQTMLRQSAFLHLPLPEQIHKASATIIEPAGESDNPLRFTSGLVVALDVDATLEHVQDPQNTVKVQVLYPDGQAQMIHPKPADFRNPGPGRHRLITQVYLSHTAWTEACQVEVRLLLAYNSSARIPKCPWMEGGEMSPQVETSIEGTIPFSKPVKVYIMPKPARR
UniProt P46940, whole entry, looked up: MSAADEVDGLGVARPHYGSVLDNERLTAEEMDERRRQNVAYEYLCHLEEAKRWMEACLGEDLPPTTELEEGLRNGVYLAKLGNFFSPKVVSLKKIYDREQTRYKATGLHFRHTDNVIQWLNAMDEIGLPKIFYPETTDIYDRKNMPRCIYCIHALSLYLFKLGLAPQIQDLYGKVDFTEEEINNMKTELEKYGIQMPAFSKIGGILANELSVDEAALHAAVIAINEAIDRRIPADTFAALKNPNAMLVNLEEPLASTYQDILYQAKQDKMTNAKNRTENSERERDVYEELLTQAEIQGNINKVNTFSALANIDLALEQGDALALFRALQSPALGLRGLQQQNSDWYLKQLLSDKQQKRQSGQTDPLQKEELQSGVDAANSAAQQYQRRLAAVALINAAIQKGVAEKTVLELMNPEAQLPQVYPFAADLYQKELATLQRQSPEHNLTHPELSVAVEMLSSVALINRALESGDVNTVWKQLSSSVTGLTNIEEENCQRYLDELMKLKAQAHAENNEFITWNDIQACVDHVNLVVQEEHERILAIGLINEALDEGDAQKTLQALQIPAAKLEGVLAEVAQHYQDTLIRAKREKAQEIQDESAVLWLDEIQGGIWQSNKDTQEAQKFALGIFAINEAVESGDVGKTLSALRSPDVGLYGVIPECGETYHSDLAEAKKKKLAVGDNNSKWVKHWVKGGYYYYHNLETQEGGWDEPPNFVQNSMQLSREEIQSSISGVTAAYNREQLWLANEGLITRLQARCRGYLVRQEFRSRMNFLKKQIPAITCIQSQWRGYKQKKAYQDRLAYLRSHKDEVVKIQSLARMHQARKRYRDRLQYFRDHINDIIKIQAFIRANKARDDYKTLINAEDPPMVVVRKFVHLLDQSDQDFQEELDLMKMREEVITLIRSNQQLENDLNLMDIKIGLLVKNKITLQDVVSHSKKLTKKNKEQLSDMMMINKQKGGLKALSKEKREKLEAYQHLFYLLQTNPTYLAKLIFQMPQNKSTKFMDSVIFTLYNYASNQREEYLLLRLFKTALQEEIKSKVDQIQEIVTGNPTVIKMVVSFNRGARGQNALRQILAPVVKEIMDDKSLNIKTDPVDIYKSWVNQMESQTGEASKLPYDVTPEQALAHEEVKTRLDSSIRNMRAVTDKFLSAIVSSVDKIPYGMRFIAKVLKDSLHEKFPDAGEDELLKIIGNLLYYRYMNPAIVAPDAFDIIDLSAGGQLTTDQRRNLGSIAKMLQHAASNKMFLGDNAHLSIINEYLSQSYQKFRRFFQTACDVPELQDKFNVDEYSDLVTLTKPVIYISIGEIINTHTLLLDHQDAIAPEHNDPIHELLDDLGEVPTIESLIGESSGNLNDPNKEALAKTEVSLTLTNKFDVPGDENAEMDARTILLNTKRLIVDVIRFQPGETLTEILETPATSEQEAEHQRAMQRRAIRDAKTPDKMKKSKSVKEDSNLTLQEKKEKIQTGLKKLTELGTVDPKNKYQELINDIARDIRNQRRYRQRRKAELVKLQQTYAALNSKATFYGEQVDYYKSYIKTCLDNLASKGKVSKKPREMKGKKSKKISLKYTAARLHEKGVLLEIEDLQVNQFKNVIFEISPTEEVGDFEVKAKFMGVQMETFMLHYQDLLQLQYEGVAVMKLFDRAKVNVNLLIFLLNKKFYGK
UniProt O43837: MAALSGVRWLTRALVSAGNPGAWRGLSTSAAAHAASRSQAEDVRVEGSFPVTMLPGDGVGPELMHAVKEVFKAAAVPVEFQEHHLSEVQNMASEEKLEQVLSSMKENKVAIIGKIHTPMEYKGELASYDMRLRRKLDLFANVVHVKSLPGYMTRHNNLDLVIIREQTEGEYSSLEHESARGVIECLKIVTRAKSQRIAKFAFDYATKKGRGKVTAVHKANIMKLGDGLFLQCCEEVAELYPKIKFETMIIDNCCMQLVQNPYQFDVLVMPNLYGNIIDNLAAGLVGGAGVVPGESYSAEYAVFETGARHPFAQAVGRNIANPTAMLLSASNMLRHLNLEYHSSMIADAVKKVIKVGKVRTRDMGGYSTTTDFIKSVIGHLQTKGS
UniProt Q5TA45, whole entry, looked up: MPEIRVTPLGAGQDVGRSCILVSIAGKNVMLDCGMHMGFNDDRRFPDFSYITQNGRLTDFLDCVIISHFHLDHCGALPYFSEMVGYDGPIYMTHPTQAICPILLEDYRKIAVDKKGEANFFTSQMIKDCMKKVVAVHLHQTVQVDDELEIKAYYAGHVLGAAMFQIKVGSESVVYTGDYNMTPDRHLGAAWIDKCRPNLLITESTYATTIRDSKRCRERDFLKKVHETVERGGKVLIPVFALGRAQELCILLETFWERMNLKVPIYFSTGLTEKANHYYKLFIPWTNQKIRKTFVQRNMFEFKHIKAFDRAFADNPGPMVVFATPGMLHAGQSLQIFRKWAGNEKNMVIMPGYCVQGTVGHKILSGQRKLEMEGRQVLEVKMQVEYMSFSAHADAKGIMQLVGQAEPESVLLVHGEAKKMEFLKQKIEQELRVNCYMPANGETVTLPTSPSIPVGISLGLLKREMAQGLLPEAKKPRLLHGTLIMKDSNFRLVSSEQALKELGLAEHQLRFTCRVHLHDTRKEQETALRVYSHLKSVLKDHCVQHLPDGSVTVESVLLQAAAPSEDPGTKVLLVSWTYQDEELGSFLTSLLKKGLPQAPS
UniProt Q96T52: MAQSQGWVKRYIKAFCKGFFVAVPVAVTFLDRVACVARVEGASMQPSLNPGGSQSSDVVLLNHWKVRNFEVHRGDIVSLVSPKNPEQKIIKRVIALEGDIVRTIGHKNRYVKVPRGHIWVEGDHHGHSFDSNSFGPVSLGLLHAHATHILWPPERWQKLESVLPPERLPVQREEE
UniProt P19823: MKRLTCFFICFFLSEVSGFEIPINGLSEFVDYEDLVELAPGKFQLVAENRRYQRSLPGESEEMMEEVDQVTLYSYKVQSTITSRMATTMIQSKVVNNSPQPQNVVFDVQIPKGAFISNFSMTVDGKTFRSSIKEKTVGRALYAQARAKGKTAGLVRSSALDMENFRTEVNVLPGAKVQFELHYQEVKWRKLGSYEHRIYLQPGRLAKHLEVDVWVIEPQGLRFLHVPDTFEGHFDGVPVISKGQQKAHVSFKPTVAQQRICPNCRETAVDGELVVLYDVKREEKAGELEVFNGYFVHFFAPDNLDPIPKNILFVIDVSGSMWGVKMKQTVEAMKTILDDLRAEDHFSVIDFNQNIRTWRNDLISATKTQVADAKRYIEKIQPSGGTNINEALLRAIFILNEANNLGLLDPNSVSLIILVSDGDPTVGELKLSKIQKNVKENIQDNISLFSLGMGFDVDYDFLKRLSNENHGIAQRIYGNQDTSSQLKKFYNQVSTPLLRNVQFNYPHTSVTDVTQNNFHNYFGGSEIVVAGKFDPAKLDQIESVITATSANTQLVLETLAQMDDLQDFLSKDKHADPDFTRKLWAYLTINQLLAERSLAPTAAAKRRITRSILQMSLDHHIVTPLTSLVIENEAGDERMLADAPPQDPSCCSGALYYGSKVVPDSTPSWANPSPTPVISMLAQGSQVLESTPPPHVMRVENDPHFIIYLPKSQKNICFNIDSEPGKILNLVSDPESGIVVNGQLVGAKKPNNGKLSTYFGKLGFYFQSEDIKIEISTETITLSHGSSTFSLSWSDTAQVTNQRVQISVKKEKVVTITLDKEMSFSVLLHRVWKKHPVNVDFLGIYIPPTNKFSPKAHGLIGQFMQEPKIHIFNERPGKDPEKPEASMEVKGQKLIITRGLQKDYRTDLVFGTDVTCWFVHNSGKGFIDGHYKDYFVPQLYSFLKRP

Legend:
Test in all cases: log2 fold change, soluble protein after heating vs DMSO (PISA); higher = thermal stabilisation; K562 cells, 10 uM, 30 min; active = over 0.2 and 3.5 SD of the protein, either way, in both replicates (recomputed)
[1] = compound: COC1=CC=C(C=C1)CN2C=CC3=C2C=C(C=C3)C(=O)NO
Summary of the method: (§1)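 Soluble protein was defined as the supernatant after 21,000xg for 90 min. It came from K562 cells at 2×10^6 cells/mL given 10 μM compound for 30 min, heated in aliquots for 3 min across 48°C-58°C, pooled, and extracted in PBS with 0.5% NP-40 at 4°C, and was quantified by TMTpro 16plex LC-MS/MS with equalised channel sums. Thermal stability against control samples, from duplicates, is reported as log2 fold change.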

filanesib = compound: CON(C)C(=O)N1N=C(c2cc(F)ccc2F)S[C@@]1(CCCN)c1ccccc1 [filanesib]
Summary of the method: as §1

zotarolimus = compound: CO[C@H]1C[C@@H]2CC[C@@H](C)[C@@](O)(O2)C(=O)C(=O)N2CCCC[C@H]2C(=O)O[C@H]([C@H](C)C[C@@H]2CC[C@H](n3cnnn3)[C@H](OC)C2)CC(=O)[C@H](C)/C=C(\C)[C@@H](O)[C@@H](OC)C(=O)[C@H](C)C[C@H](C)/C=C/C=C/C=C/1C [zotarolimus]
Summary of the method: as §1

idasanutlin = compound: COc1cc(C(=O)O)ccc1NC(=O)[C@@H]1N[C@@H](CC(C)(C)C)[C@](C#N)(c2ccc(Cl)cc2F)[C@H]1c1cccc(Cl)c1F [idasanutlin]
Summary of the method: as §1

alisertib = compound: COc1cc(Nc2ncc3c(n2)-c2ccc(Cl)cc2C(c2c(F)cccc2OC)=NC3)ccc1C(=O)O [alisertib]
Summary of the method: as §1

[2] = compound: COc1cc2nc(-c3cc(F)ccc3O)nc(N[C@@H]3CNC[C@H]3C(C)(C)O)c2cc1OC
Summary of the method: as §1

gefitinib = compound: COc1cc2ncnc(Nc3ccc(F)c(Cl)c3)c2cc1OCCCN1CCOCC1 [gefitinib]
Summary of the method: as §1

[3] = compound: COc1cccc2cc(-c3nc([C@H]4CC[C@H](C(=O)O)CC4)n4ncnc(N)c34)[nH]c12
Summary of the method: as §1

lapatinib = compound: CS(=O)(=O)CCNCc1ccc(-c2ccc3ncnc(Nc4ccc(OCc5cccc(F)c5)c(Cl)c4)c3c2)o1 [lapatinib]
Summary of the method: as §1

pictilisib = compound: CS(=O)(=O)N1CCN(Cc2cc3nc(-c4cccc5[nH]ncc45)nc(N4CCOCC4)c3s2)CC1 [pictilisib]
Summary of the method: as §1

[4] = compound: CS(=O)(=O)c1ccc(-c2cnc(N)c(C(=O)Nc3ccccc3)n2)cc1
Summary of the method: as §1

crizotinib = compound: C[C@@H](Oc1cc(-c2cnn(C3CCNCC3)c2)cnc1N)c1c(Cl)ccc(F)c1Cl [crizotinib]
Summary of the method: as §1

[5] = compound: C[C@@H]1COCCN1C2=NC(=NC(=C2)C3(CC3)S(=O)(=O)C)C4=C5C=CNC5=CC=C4
Summary of the method: as §1

[6] = compound: C[C@H](C1=CC=C(C=C1)C(=O)NC2=C3C=CNC3=NC=C2)N
Summary of the method: as §1

duvelisib = compound: C[C@H](Nc1ncnc2nc[nH]c12)c1cc2cccc(Cl)c2c(=O)n1-c1ccccc1 [duvelisib]
Summary of the method: as §1

gandotinib = compound: Cc1cc(Nc2cc(CN3CCOCC3)c3nc(C)c(Cc4ccc(Cl)cc4F)n3n2)n[nH]1 [gandotinib]
Summary of the method: as §1

tozasertib = compound: Cc1cc(Nc2cc(N3CCN(C)CC3)nc(Sc3ccc(NC(=O)C4CC4)cc3)n2)n[nH]1 [tozasertib]
Summary of the method: as §1

[7] = compound: Cc1cc(SCc2sc(-c3ccc(C(F)(F)F)cc3)nc2C)ccc1OCC(=O)O
Summary of the method: as §1

doramapimod = compound: Cc1ccc(-n2nc(C(C)(C)C)cc2NC(=O)Nc2ccc(OCCN3CCOCC3)c3ccccc23)cc1 [doramapimod]
Summary of the method: as §1

ispinesib = compound: Cc1ccc(C(=O)N(CCCN)[C@@H](c2nc3cc(Cl)ccc3c(=O)n2Cc2ccccc2)C(C)C)cc1 [ispinesib]
Summary of the method: as §1

Measured: log2 fold change

IPO5 isoform 3 (UniProt O00410)
inactive: [1] 0.06 | filanesib -0.16 | zotarolimus 0.006 | idasanutlin -0.087 | alisertib -0.061 | [2] -0.136 | gefitinib -0.023 | [3] 0.022 | lapatinib 0.071 | pictilisib -0.068 | [4] -0.022 | crizotinib -0.199 | [5] 0.051 | [6] -0.084 | duvelisib -0.017 | gandotinib -0.194 | tozasertib -0.008 | [7] 0.029 | doramapimod -0.008 | ispinesib -0.034

IDH3G (UniProt P51553)
inactive: [1] -0.032 | filanesib -0.045 | zotarolimus -0.004 | idasanutlin -0.058 | alisertib -0.129 | [2] 0.003 | gefitinib 0.031 | [3] 0.064 | lapatinib 0.004 | pictilisib 0.027 | [4] 0.027 | crizotinib 0.032 | [5] 0.07 | [6] -0.034 | duvelisib 0.069 | gandotinib -0.043 | tozasertib -0.016 | [7] -0.003 | doramapimod -0.033 | ispinesib 0.094

ITFG1 (UniProt Q8TB96)
inactive: [1] -0.08 | filanesib 0.001 | zotarolimus 0.02 | idasanutlin 0.052 | alisertib -0.173 | [2] -0.021 | gefitinib 0 | [3] -0.034 | lapatinib 0.011 | pictilisib 0.053 | [4] 0.008 | crizotinib 0.021 | [5] 0.042 | [6] 0.005 | duvelisib 0.106 | gandotinib 0.03 | tozasertib 0.117 | [7] -0.008 | doramapimod -0.004 | ispinesib 0.004

ITGA5 (UniProt P08648)
inactive: [1] 0.015 | filanesib 0.037 | zotarolimus -0.045 | idasanutlin 0.015 | alisertib -0.118 | [2] 0.017 | gefitinib 0.019 | [3] 0.058 | lapatinib -0.04 | pictilisib 0.069 | [4] 0.018 | crizotinib 0.109 | [5] 0.028 | [6] -0.09 | duvelisib 0.055 | gandotinib -0.031 | tozasertib -0.035 | [7] -0.041 | doramapimod -0.003 | ispinesib 0.069

ISYNA1 (UniProt Q9NPH2)
inactive: [1] -0.008 | filanesib -0.075 | zotarolimus -0.024 | idasanutlin -0.018 | alisertib 0.04 | [2] 0.018 | gefitinib 0.024 | [3] -0.066 | lapatinib -0.017 | pictilisib 0.034 | [4] -0.008 | crizotinib 0 | [5] 0.043 | [6] -0.091 | duvelisib 0.047 | gandotinib -0.027 | tozasertib -0.05 | [7] -0.037 | doramapimod -0.044 | ispinesib 0.02

ISCA1 isoform 2 (UniProt Q9BUE6)
inactive: [1] -0.091 | filanesib -0.128 | zotarolimus 0.065 | idasanutlin -0.001 | alisertib -0.009 | [2] -0.011 | gefitinib -0.091 | [3] 0.061 | lapatinib 0.036 | pictilisib 0.018 | [4] -0.018 | crizotinib 0.152 | [5] -0.051 | [6] 0 | duvelisib 0.088 | gandotinib -0.015 | tozasertib 0.032 | [7] -0.019 | doramapimod -0.086

INTS14 (UniProt Q96SY0)
inactive: [1] 0.068 | filanesib -0.028 | zotarolimus -0.027 | idasanutlin -0.033 | alisertib 0.008 | [2] -0.005 | gefitinib -0.011 | [3] 0.038 | lapatinib 0.031 | pictilisib -0.023 | [4] 0.034 | crizotinib -0.04 | [5] 0.084 | [6] -0.012 | duvelisib 0.032 | gandotinib 0.011 | tozasertib -0.017 | [7] 0.064 | doramapimod -0.028 | ispinesib 0.065

INTS4 (UniProt Q96HW7)
inactive: [1] -0.021 | filanesib -0.001 | zotarolimus -0.028 | idasanutlin -0.061 | alisertib -0.002 | [2] 0.007 | gefitinib 0.028 | [3] 0.023 | lapatinib -0.009 | pictilisib 0.066 | [4] -0.005 | crizotinib 0.038 | [5] 0.021 | [6] -0.06 | duvelisib 0.032 | gandotinib -0.036 | tozasertib 0.027 | [7] 0.018 | doramapimod -0.046 | ispinesib 0.094

IQGAP1 (UniProt P46940)
inactive: [1] 0.036 | filanesib -0.05 | zotarolimus 0.021 | idasanutlin -0.045 | alisertib -0.004 | [2] 0.095 | gefitinib 0.008 | [3] -0.031 | lapatinib -0.054 | pictilisib -0.06 | [4] 0.001 | crizotinib -0.098 | [5] 0.012 | [6] -0.064 | duvelisib 0.005 | gandotinib -0.131 | tozasertib -0.058 | [7] 0.082 | doramapimod -0.034 | ispinesib 0

IDH3B (UniProt O43837)
inactive: [1] 0.138 | filanesib -0.061 | zotarolimus 0.033 | idasanutlin -0.131 | alisertib -0.033 | [2] -0.009 | gefitinib 0.015 | [3] 0.015 | lapatinib 0.031 | pictilisib 0.025 | [4] 0.033 | crizotinib 0.051 | [5] 0.16 | [6] -0.041 | duvelisib 0.009 | gandotinib -0.012 | tozasertib -0.068 | [7] 0.034 | doramapimod -0.07 | ispinesib 0.103

4 consecutive entries from above:
ITGA5 (UniProt P08648)
inactive: [1] 0.015 | filanesib 0.037 | zotarolimus -0.045 | idasanutlin 0.015 | alisertib -0.118 | [2] 0.017 | gefitinib 0.019 | [3] 0.058 | lapatinib -0.04 | pictilisib 0.069 | [4] 0.018 | crizotinib 0.109 | [5] 0.028 | [6] -0.09 | duvelisib 0.055 | gandotinib -0.031 | tozasertib -0.035 | [7] -0.041 | doramapimod -0.003 | ispinesib 0.069

ISYNA1 (UniProt Q9NPH2)
inactive: [1] -0.008 | filanesib -0.075 | zotarolimus -0.024 | idasanutlin -0.018 | alisertib 0.04 | [2] 0.018 | gefitinib 0.024 | [3] -0.066 | lapatinib -0.017 | pictilisib 0.034 | [4] -0.008 | crizotinib 0 | [5] 0.043 | [6] -0.091 | duvelisib 0.047 | gandotinib -0.027 | tozasertib -0.05 | [7] -0.037 | doramapimod -0.044 | ispinesib 0.02

ISCA1 isoform 2 (UniProt Q9BUE6)
inactive: [1] -0.091 | filanesib -0.128 | zotarolimus 0.065 | idasanutlin -0.001 | alisertib -0.009 | [2] -0.011 | gefitinib -0.091 | [3] 0.061 | lapatinib 0.036 | pictilisib 0.018 | [4] -0.018 | crizotinib 0.152 | [5] -0.051 | [6] 0 | duvelisib 0.088 | gandotinib -0.015 | tozasertib 0.032 | [7] -0.019 | doramapimod -0.086

INTS14 (UniProt Q96SY0)
inactive: [1] 0.068 | filanesib -0.028 | zotarolimus -0.027 | idasanutlin -0.033 | alisertib 0.008 | [2] -0.005 | gefitinib -0.011 | [3] 0.038 | lapatinib 0.031 | pictilisib -0.023 | [4] 0.034 | crizotinib -0.04 | [5] 0.084 | [6] -0.012 | duvelisib 0.032 | gandotinib 0.011 | tozasertib -0.017 | [7] 0.064 | doramapimod -0.028 | ispinesib 0.065

Next part:

IMPDH1 isoform 6 (UniProt P20839)
inactive: [1] -0.009 | filanesib 0.074 | zotarolimus -0.005 | idasanutlin 0.009 | alisertib -0.111 | [2] -0.049 | gefitinib -0.027 | [3] -0.053 | lapatinib 0.06 | pictilisib -0.033 | [4] 0.023 | crizotinib -0.009 | [5] -0.124 | [6] 0.057 | duvelisib -0.063 | gandotinib 0.036 | tozasertib 0.029 | [7] 0.056 | doramapimod 0.035 | ispinesib -0.046

ITPK1 (UniProt Q13572)
inactive: [1] -0.005 | filanesib -0.101 | zotarolimus 0.017 | idasanutlin -0.144 | alisertib 0.109 | [2] 0.058 | gefitinib 0.027 | [3] 0.087 | lapatinib -0.046 | pictilisib -0.003 | [4] -0.005 | crizotinib 0.02 | [5] 0.024 | [6] -0.06 | duvelisib 0.08 | gandotinib 0.026 | tozasertib -0.097 | [7] -0.031 | doramapimod 0.005 | ispinesib 0.122

INTS11 (UniProt Q5TA45)
inactive: [1] 0.061 | filanesib -0.021 | zotarolimus 0.07 | idasanutlin -0.042 | alisertib -0.04 | [2] 0.006 | gefitinib 0.006 | [3] -0.019 | lapatinib 0.034 | pictilisib -0.005 | [4] -0.002 | crizotinib 0.14 | [5] -0.035 | [6] -0.031 | duvelisib -0.025 | gandotinib 0.051 | tozasertib 0.005 | [7] 0.039 | doramapimod 0.004 | ispinesib 0.028

IMMP2L (UniProt Q96T52)
inactive: [1] -0.077 | filanesib -0.027 | zotarolimus 0.012 | idasanutlin -0.103 | alisertib -0.094 | [2] 0.03 | gefitinib 0.027 | [3] 0.027 | lapatinib 0.02 | pictilisib -0.023 | [4] -0.086 | crizotinib 0.022 | [5] 0.024 | [6] -0.001 | duvelisib -0.005 | gandotinib -0.058 | tozasertib 0.072 | [7] -0.034 | doramapimod -0.002 | ispinesib 0.022

IPO4 isoform 2 (UniProt Q8TEX9)
inactive: [1] 0.157 | filanesib 0.057 | zotarolimus 0.067 | idasanutlin 0.018 | alisertib -0.163 | [2] -0.095 | gefitinib 0.005 | [3] -0.121 | lapatinib 0.035 | pictilisib -0.034 | [4] -0.021 | crizotinib -0.17 | [5] -0.01 | [6] 0.117 | duvelisib -0.056 | gandotinib -0.024 | tozasertib 0.097 | [7] 0.057 | doramapimod 0.042 | ispinesib -0.029

ITIH2 (UniProt P19823)
inactive: [1] -0.082 | filanesib 0.149 | zotarolimus -0.194 | idasanutlin 0.074 | alisertib -0.118 | [2] -0.123 | gefitinib -0.136 | [3] 0.346 | lapatinib -0.029 | pictilisib -0.102 | [4] -0.155 | crizotinib 0.163 | [5] -0.041 | [6] 0.206 | duvelisib -0.267 | gandotinib -0.078 | tozasertib -0.033 | [7] -0.187 | doramapimod 0.164 | ispinesib -0.066
